Measured values as given in article PMC5338267.
These are yes or no findings as the source states them, for the method shown. Binding seen in cells or lysates may run through a third protein. Some results given as binding are weak or reduced against the parent protein; the word gives no strength.

Sequences of proteins named here, by UniProt entry; tags and fusion partners are left off.
UniProt P17931: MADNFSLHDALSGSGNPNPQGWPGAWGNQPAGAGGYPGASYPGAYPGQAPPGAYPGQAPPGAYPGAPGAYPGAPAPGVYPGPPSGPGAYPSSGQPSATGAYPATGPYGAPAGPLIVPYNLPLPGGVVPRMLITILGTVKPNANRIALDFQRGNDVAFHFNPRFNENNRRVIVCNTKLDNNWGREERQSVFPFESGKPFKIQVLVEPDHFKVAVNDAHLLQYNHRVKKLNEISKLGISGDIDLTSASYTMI

Target: Galectin-3 (human (endogenous in CAPAN-1-derived Sc cells)) (UniProt P17931)
Test: co-IP; 300 μg total protein from formaldehyde (PFA) cross-linked Sc cells; IP with 2 μg anti-Galectin-3 antibody (Santa Cruz sc-20157) or isotype-matched rabbit IgG; western blot for hnRNP-L; cells untreated or treated with nocodazole (400 ng/ml, 16 h)

B1: hnRNP-L (protein, UniProt P14866 1-589)
chain: MSRRLLPRAEKRRRRLEQRQQPDEQRRRSGAMVKMAAAGGGGGGGRYYGGGSEGGRAPKRLKTDNAGDQHGGGGGGGGGAGAAGGGGGGENYDDPHKTPASPVVHIRGLIDGVVEADLVEALQEFGPISYVVVMPKKRQALVEFEDVLGACNAVNYAADNQIYIAGHPAFVNYSTSQKISRPGDSDDSRSVNSVLLFTILNPIYSITTDVLYTICNPCGPVQRIVIFRKNGVQAMVEFDSVQSAQRAKASLNGADIYSGCCTLKIEYAKPTRLNVFKNDQDTWDYTNPNLSGQGDPGSNPNKRQRQPPLLGDHPAEYGGPHGGYHSHYHDEGYGPPPPHYEGRRMGPPVGGHRRGPSRYGPQYGHPPPPPPPPEYGPHADSPVLMVYGLDQSKMNCDRVFNVFCLYGNVEKVKFMKSKPGAAMVEMADGYAVDRAITHLNNNFMFGQKLNVCVSKQPAIMPGQSYGLEDGSCSYKDFSESRNNRFSTPEQAAKNRIQHPSNVLHFFNAPLEVTEENFFEICDELGVKRPSSVKVFSGKSERSSSGLLEWESKSDALETLGFLNHYQMKNPNGPYPYTLKLCFSTAQHAS
**Q.** How did the binding turn out when B1 was run?
**A.** The binding was “binds”.
